Here are results for 54 sequences from article PMC7819943, “Rice protein-binding microarrays: a tool to detect cis-acting elements near promoter regions in rice”.

Some of the results follow.

The target of this assay is T1, OsSMF1 (Oryza sativa, UniProt Q6ZLB0 1-436).
T1 sequence: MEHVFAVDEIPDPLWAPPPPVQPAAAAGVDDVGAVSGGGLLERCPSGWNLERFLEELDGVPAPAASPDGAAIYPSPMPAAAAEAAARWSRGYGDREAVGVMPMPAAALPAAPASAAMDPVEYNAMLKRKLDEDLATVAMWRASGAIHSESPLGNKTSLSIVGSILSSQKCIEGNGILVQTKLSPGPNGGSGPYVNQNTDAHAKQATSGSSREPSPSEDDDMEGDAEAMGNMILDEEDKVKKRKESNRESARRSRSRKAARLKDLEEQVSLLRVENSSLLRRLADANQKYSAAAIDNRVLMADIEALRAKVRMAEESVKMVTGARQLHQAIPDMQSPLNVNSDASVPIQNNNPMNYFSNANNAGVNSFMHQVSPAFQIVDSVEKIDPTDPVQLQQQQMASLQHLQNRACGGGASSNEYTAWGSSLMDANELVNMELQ
Nature of the assay: protein-binding microarray (RPBM); PBS, 2% BSA, 51.3 ng/ul salmon testes DNA, 50 uM zinc acetate, 200 nM TF, 25 C, 1 h; high values mean tight binding. The settings on record: protein: recombinant; tags: N-terminal polyhistidine and DsRed monomer fusion (pET32a); chain copies: 2; label: CyDye5-dUTP incorporated in the synthesized complementary strand; 3' TTTTT single-stranded linker to array surface; dsDNA, one strand shown. A digest of the protocol: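 An Axon 4000B scanner gave the binding signal as per-feature fluorescence intensity in arbitrary units. This followed washing of a custom Agilent array that had been incubated for 1 h at 25 °C with 200 nM protein in PBS, 2% BSA, salmon testes DNA and 50 µM zinc acetate. The proteins were transcription factors fused at the N-terminus to polyhistidine and DsRed, expressed in E. coli BL21-CodonPlus and purified on Ni–NTA.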
Turning to “CAGCAAGCCGATAGCGCCACGCCACGCTAAGCTCGCCGCCCGGAGTCACCTAGTGCAG”, the binding signal was 5560 fluorescence intensity (a.u.).

As for “ATGTGTTTGTCAACCGAGTAGAAACCGACACGTTTCGCGACGGAGTCACCTAGTGCAG”, the binding signal was 3890 fluorescence intensity (a.u.).

In the case of “TCCAAAATTCCATTAAATCAGGTGAATGACTAAAGTGTAACGGAGTCACCTAGTGCAG”, the binding signal is 3290 fluorescence intensity (a.u.).

With “CAGGGAGCATTGAGATTCACTTTGTCACGATGGTAATATACGGAGTCACCTAGTGCAG”, the binding signal was 22600 fluorescence intensity (a.u.).

In the case of “AACCAACCACGATGACAATCCCATATCAACCCTCCCAACACGGAGTCACCTAGTGCAG”, the binding signal is 3530 fluorescence intensity (a.u.).

On to “CGCAGCCCGAGCCCGCCGTATTCCACGTCGACGCTGTCGTCGGAGTCACCTAGTGCAG”, for which the binding signal was 5720 fluorescence intensity (a.u.).

Consider “TTCAAGATCCGATATCAAGTGACGTGGTCGGCGCGATCTGCGGAGTCACCTAGTGCAG”, for which the binding signal was 8530 fluorescence intensity (a.u.).

Take “GTTCAGATTTGTTATACTAGAATGTGTCACGCCAGTTTTACGGAGTCACCTAGTGCAG”: the binding signal was 4450 fluorescence intensity (a.u.).

Consider “AAAATTCCTAAAACTACTTGCTACTATTCTCTCTCCAACTCGGAGTCACCTAGTGCAG”, for which the binding signal is 3280 fluorescence intensity (a.u.).

Consider “AGAGTTGTGGGTGTCCAATGCCACGTAATAAAAGTCCAAACGGAGTCACCTAGTGCAG”, for which the binding signal was 9380 fluorescence intensity (a.u.).

For the sequence “GGAATAACAATAGGCTTGATGTACCTGGAATTTAGCAAATCGGAGTCACCTAGTGCAG”, the binding signal is 28000 fluorescence intensity (a.u.).

In the case of “CTAAAGCGTTATCCCACACGTGGATCCATCCCCACCGTCCCGGAGTCACCTAGTGCAG”, the binding signal was 7200 fluorescence intensity (a.u.).

As to “ATAAATTTGTACCCTCCAGCTCACACTCAATGTCACCTGGCGGAGTCACCTAGTGCAG”, the binding signal was 3480 fluorescence intensity (a.u.).

For “GCGTTCCTTCAGGAGCATGACTCATAGACGGAACGGTGACCGGAGTCACCTAGTGCAG”, the binding signal was 4700 fluorescence intensity (a.u.).

Regarding “CCCGACATGTAGATCGGGTCGTGCCGACCCAATTGACCTTCGGAGTCACCTAGTGCAG”, the binding signal was 18200 fluorescence intensity (a.u.).

Regarding “CCACCCGCGCCGCCACCGACACCTCCCCTACGCCCTAGCTCGGAGTCACCTAGTGCAG”, the binding signal is 17100 fluorescence intensity (a.u.).

On to “AAACCAATTAGTCAGACAATATATACCAGCACAAAATACACGGAGTCACCTAGTGCAG”, for which the binding signal is 3220 fluorescence intensity (a.u.).

For the sequence “AGTGTGTTTCTGCAACAGTAGTGTTCTGTTCATGGGCAACCGGAGTCACCTAGTGCAG”, the binding signal is 21400 fluorescence intensity (a.u.).

Regarding “ATGACATTTGGCCATGTCATGTTTTAATTAGGTCGAGAAGCGGAGTCACCTAGTGCAG”, the binding signal is 3560 fluorescence intensity (a.u.).

Turning to “GACCTGCCCGCCGCCGCCGACGTCCCCTCGGGCGGATCTGCGGAGTCACCTAGTGCAG”, the binding signal was 3380 fluorescence intensity (a.u.).

For “GGGCTCCCAGTATAGCTTAGGTTGATTTAATTATGGTTAACGGAGTCACCTAGTGCAG”, the binding signal was 49500 fluorescence intensity (a.u.).

As for “CCGTTTCCAACCCGACTCCGTGGCGGTCTCTGAGCCGTCCCGGAGTCACCTAGTGCAG”, the binding signal was 3640 fluorescence intensity (a.u.).

Regarding “TTAAGGCCCATTTGCTAGGCTGACGCATGGGACCCATATTCGGAGTCACCTAGTGCAG”, the binding signal is 3880 fluorescence intensity (a.u.).

Turning to “GGAAAGTGTTTGTGGCCCACGTGCGGCTTGTTATTATTGGCGGAGTCACCTAGTGCAG”, the binding signal is 3450 fluorescence intensity (a.u.).

“GTCTTTTCCGGTAGTGCGTGAGTAGCAAGATTGCATGACGCGGAGTCACCTAGTGCAG”: the binding signal is 3250 fluorescence intensity (a.u.).

“GATAGCGAACCCTTTGGTCTTCGTCATTAGGCTTCGCTCACGGAGTCACCTAGTGCAG”: the binding signal is 3710 fluorescence intensity (a.u.).

Turning to “CCCAAACAAACCGCTTCGTCGACTCGTCGCCGTCGTCGTCCGGAGTCACCTAGTGCAG”, the binding signal was 3770 fluorescence intensity (a.u.).

In the case of “CTATAGCAATACTTGCGGTGCATGCTAGTGAGTAGTGACGCGGAGTCACCTAGTGCAG”, the binding signal is 10600 fluorescence intensity (a.u.).

With “GAGGAGTGGGAGGAAAATGAGTGGTGGGGAAAGGATAGGGCGGAGTCACCTAGTGCAG”, the binding signal is 4150 fluorescence intensity (a.u.).

Turning to “TTCCATGGCTAATTGTTCACTGTCATCAAATTGGCATTCACGGAGTCACCTAGTGCAG”, the binding signal was 5320 fluorescence intensity (a.u.).

In the case of “ATTAATCAAGCAGCATCGAGATGTTGCGAGAGATCGGAATCGGAGTCACCTAGTGCAG”, the binding signal is 37500 fluorescence intensity (a.u.).

“GGTGTACCCCAAGCAGGAACGCACTGCTAGCAGTTGGTAGCGGAGTCACCTAGTGCAG”: the binding signal is 36100 fluorescence intensity (a.u.).

Turning to “GAGTCAAACATTTAGCTGACGCTATCTTTGACCACGCCGCCGGAGTCACCTAGTGCAG”, the binding signal is 4420 fluorescence intensity (a.u.).

As to “CCAATGCATGCATGCACAATTGTGCGCCCCGGTCCTGCAACGGAGTCACCTAGTGCAG”, the binding signal is 4280 fluorescence intensity (a.u.).

Take “TACGCCTCCGCTGTCACAAGCGTATTACTATCTATTACGCCGGAGTCACCTAGTGCAG”: the binding signal was 3420 fluorescence intensity (a.u.).

For “CCTTCCGGGCAGCGCTTGCTGACGAGACGGCGGCGGCAGGCGGAGTCACCTAGTGCAG”, the binding signal was 5980 fluorescence intensity (a.u.).

For the sequence “TGGTATGAATGGATAATTTGTTTCTGTCTTATGTGTTGCTCGGAGTCACCTAGTGCAG”, the binding signal was 3150 fluorescence intensity (a.u.).

On to “ACTACCACATGATCCCAGGTCATTTTCCGTTTTCGTGTCACGGAGTCACCTAGTGCAG”, for which the binding signal is 3270 fluorescence intensity (a.u.).

As to “CCGTCATCTCCGTCATCTCCGTCGTCTGCCGCAGTCACGGCGGAGTCACCTAGTGCAG”, the binding signal is 4020 fluorescence intensity (a.u.).

Take “GGACGGCCGCGATCTCGCGGGGACCGCCGCGTGTCCCGTGCGGAGTCACCTAGTGCAG”: the binding signal is 3500 fluorescence intensity (a.u.).

On to “TGCACCACGTTAGATCAATTTTACTTACGTGTATTGTTTTCGGAGTCACCTAGTGCAG”, for which the binding signal was 6610 fluorescence intensity (a.u.).

With “GCGGGGACGACCACGGCCTGCAGCGACCACGTCGCCTCCACGGAGTCACCTAGTGCAG”, the binding signal was 3520 fluorescence intensity (a.u.).

As to “ACAGCTAGGCATTGCAAGGTATACGTACACGTACCAACTGCGGAGTCACCTAGTGCAG”, the binding signal is 3540 fluorescence intensity (a.u.).

In the case of “TACCATATTGCTTTCGTCAGCGACGAAGGTATAGTTGTGCCGGAGTCACCTAGTGCAG”, the binding signal was 6730 fluorescence intensity (a.u.).

Regarding “GCCATCGGTATCTCAATGACATGTAAATGACATGTGGATCCGGAGTCACCTAGTGCAG”, the binding signal was 3740 fluorescence intensity (a.u.).

As for “TGCTACATTCCCAATCTATCCCATGCGCGTTGCCACGCATCGGAGTCACCTAGTGCAG”, the binding signal is 3730 fluorescence intensity (a.u.).

“CCCATTAGCATTTCCGGTTTGTATGTGCGTGTTCCCCTGTCGGAGTCACCTAGTGCAG”: the binding signal is 3770 fluorescence intensity (a.u.).

As for “GGTAGAATACGCGCGAATCAGCGCTTATGTGTACTAGTTTCGGAGTCACCTAGTGCAG”, the binding signal is 4020 fluorescence intensity (a.u.).

With “CAACAGCACAATCTCATTGCATGACTCACACAAAACCAATCGGAGTCACCTAGTGCAG”, the binding signal was 7820 fluorescence intensity (a.u.).

As to “CAGATGAATCATGATGGCATTATCAGCGGTATCGAGTCGTCGGAGTCACCTAGTGCAG”, the binding signal is 3510 fluorescence intensity (a.u.).

On to “ATCTACGACTTGAACCCAGGTAAGCAAGTTCCACCACAAGCGGAGTCACCTAGTGCAG”, for which the binding signal is 3250 fluorescence intensity (a.u.).

In the case of “ATCGGTTAGATCGTGTCCTTTTGCTTTTGTGTTCGGTTTTCGGAGTCACCTAGTGCAG”, the binding signal was 6940 fluorescence intensity (a.u.).

On to “GAAGTGCTGCTGCAGAAGAAGCTCGTCATCAGGCAGGCTGCGGAGTCACCTAGTGCAG”, for which the binding signal was 4080 fluorescence intensity (a.u.).

For “GGGCCAAAACAAAGCCAGCGTGCAACCCTCGACAAAGCACCGGAGTCACCTAGTGCAG”, the binding signal was 4110 fluorescence intensity (a.u.).
